PubChem BioAssay AID1259425 | University of Nebraska Medical Center – 2018
This is a random part of about 14,000 reagents tested. Further read-outs or replicates are left out here. The record does not give: the time to read-out.

Purpose: 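Compare each knockdown with KSR1 silencing using changes in marker transcripts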 (primary screen)
System: HCT116 human colon cancer cells
Reagents: siRNA pool against human genes, 50 nM siRNA
Read-out: 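After 50 nM siRNA pool, branched-DNA assay measures six marker transcripts per well, minus blank, normalised to the geometric mean of two housekeeping transcripts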
Reading the numbers: BNIP3L mRNA: higher = more BNIP3L transcript after knockdown

| gene | BNIP3L mRNA, set 1 |
| --- | --- |
| POLE | 0.145 |
| KCNK6 | 0.112 |
| ADGRA1 | 0.123 |
| FCER2 | 0.0866 |
| SLC16A1 | 0.0763 |
| SNX29 | 0.186 |
| TRO | 0.127 |
| PPP1R2C | 0.113 |
| BABAM2 | 0.0964 |
| HTR2B | 0.0562 |
| PPP1R16A | 0.0688 |
| ZNF23 | 0.145 |
| ABCD4 | 0.0941 |
| CFHR3 | 0.142 |
| DNTT | 0.144 |
| AIMP1 | 0.0936 |
| SOX1 | 0.252 |
| TGM2 | 0.0837 |
| CCDC142 | 0.135 |
| AQP7 | 0.0705 |
| CNNM1 | 0.114 |
| RND3 | 0.304 |
| MINDY4 | 0.371 |
| NME5 | 0.0517 |
| STEAP4 | 0.101 |
| ADGRB2 | 0.253 |
| USP1 | 0.0707 |
| LRP1 | 0.0245 |
| ZMAT5 | 0.289 |
| STARD9 | 0.145 |
| MSL3 | 0.0773 |
| KLC2 | 0.0924 |
| NEUROD2 | 0.171 |
| FYCO1 | 0.17 |
| IAPP | 0.121 |
| STX11 | 0.103 |
| FAM111A | 0.105 |
| PTGFRN | 0.0607 |
| PLEKHG5 | 0.0813 |
| NDUFS7 | 0.218 |
| SH2D2A | 0.177 |
| LRRN3 | 0.0693 |
| ATP5MC2 | 0.388 |
| PRICKLE4 | 0.17 |
| DPM3 | 0.207 |
| NLGN2 | 0.131 |
| CYP27B1 | 0.0756 |
| CBR3 | 0.0568 |
| BRI3BP | 0.1 |
| SYT1 | 0.0826 |
| CDKN2C | 0.0774 |
| TPM3 | 0.113 |
| RMP64 | 0.21 |
| ZHX1 | 0.0846 |
| RPL28 | 0.309 |
| ADAM8 | 0.164 |
| TRIM22 | 0.106 |
| MEN1 | 0.0934 |
| APC2 | 0.13 |
| FAM3A | 0.0654 |
| OR2S2 | 0.117 |
| PDE5A | 0.12 |
| SYBU | 0.064 |
